Drawing on PubChem BioAssay AID2685 (National Center for Advancing Translational Sciences (NCATS), 2010), this text covers cell number change and AC50 for 59 compounds.

The list shows a part of the results. The main result of the screen is listed elsewhere. These columns were measured beside it and carry no call. Compounds called inactive in the main read-out are mostly missing here. Potencies come from curve fits of mixed quality, noted in brackets.

The assay in a line: qHTS Assay for Lipid Storage Modulators in Drosophila S3 Cells.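 As to cell number change: cells counted by Cell Tracker Red CMTPX staining in the red channel.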 The following applies: BODIPY lipid droplet fluorescence, 18-24 h; for cell number change: measured here: cell count max response, cells fed with added oleic acid. An outline of the steps:
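Laser-scanning cytometry quantifies lipid droplet accumulation (500–530 nm total intensity; droplet/cell object ratio) in oleic acid-fed (400 uM added) Drosophila S3 cells treated with a concentration series. 20 uM Triacsin C defined 100% inhibition.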

Where [1] appears, read: measured here: lipid fluorescence (Fed channel) AC50, cells fed with added oleic acid.
[2] abbreviates: measured here: cell number channel AC50, cells fed with added oleic acid.

In the case of `O=C(NCc1ccccc1)c1cc(-c2ccco2)on1`, the cell number change is -7.23%. Also, the AC50 (as a rule, the concentration giving half of the maximal activity seen) under setting [1] was 6.51 µM [rising, single point]. Turning to `COc1cc(C(=O)NCCC(=O)NCCN2CCCCCC2)cc(OC)c1OC`, the cell number change is -3.92%. Besides, under setting [1], the AC50 was 7.31 µM [falling, single point]. Regarding `Cc1ccc(S(=O)(=O)N2CCC(C(=O)OCC(=O)N3CCC(C)CC3)CC2)cc1C`, the cell number change came out at 75%. The half-maximal activity concentration (AC50) under setting [2] is 18.4 µM [rising, single point]. As to `CCOc1ccc(/C=C2\SC(N3CCc4ccccc4C3)=NC2=O)cc1`, the cell number change is -27.4%. The AC50 under setting [1] was 0.259 µM [falling, partial curve, poor fit].

As for `Cc1ccc(S(=O)(=O)N2CCN(C(=O)C3CCCO3)CC2)cc1` (stereo not given), the cell number change is -19.4%. In addition, the AC50 under setting [2] was 0.103 µM [falling, full curve, poor fit]. Consider `Cc1ccc(SCC(=O)NCCSCc2ccccc2)cc1`, for which the cell number change is 148%. Besides, under setting [2], the AC50 is 2.06 µM [rising, full curve]. Also, under setting [1], the AC50 was 3.26 µM [rising, full curve]. Turning to `O=C(O)Cc1cn(Cc2ccc(F)cc2)c2ccccc12`, the cell number change is -51.6%. Further, the AC50 under setting [2] is 4.11 µM [falling, partial curve]. For `NC(=O)CC[C@@H]1NC(=O)[C@H](CO)NC(=O)c2cc([N+](=O)[O-])cc(I)c2NCCCC[C@@H](C(N)=O)NC(=O)[C@H](Cc2ccc(O)cc2)NC1=O`, the cell number change was -10.9%. In addition, the AC50 under setting [1] is 0.00651 µM [falling, full curve, poor fit]. Consider `O=C(NCCS(=O)(=O)NCc1ccccn1)c1ccccc1`, for which, under setting [1], the AC50 was 0.231 µM [rising, full curve, poor fit]. As to `COc1ccc(C(C)N2CC34C=CC(O3)C(C(=O)O)C4C2=O)cc1` (stereo not given), the cell number change is -89.4%. Further, under setting [2], the AC50 is 29.1 µM [falling, single point].

Regarding `CCOc1ccc(NC(=O)CN2CCN(CC(=O)Nc3ccc(OC)cc3OC)CC2)cc1`, the AC50 runs as follows: under setting [2], 2.91 µM [rising, single point]; under setting [1], 29.1 µM [rising, single point]. In the case of `O=C(O)COc1ccc2c(c1)O/C(=C\c1cccs1)C2=O`, the cell number change was -21.7%. Also, under setting [1], the AC50 is 1.84 µM [falling, full curve, poor fit]. `COc1cc2c(cc1OC)C(C(=O)Nc1cccc(C)n1)C(c1cccnc1)N(C)C2=O` (stereo not given): the cell number change came out at 4.16%. In addition, the AC50 under setting [1] is 29.1 µM [falling, single point]. For the compound `C[C@H](OC(=O)NCc1ccc(C(F)(F)F)cc1)[C@@H]1O[C@@]2(C)CCC[C@@H]1O2`, the cell number change is -4.93%. Also, under setting [1], the AC50 was 8.2 µM [falling, partial curve].

With `COc1cccc(N(CC(=O)NC2CCCCC2)C(=O)CCCC(=O)Nc2ccccn2)c1`, the cell number change is 24.8%.

For `CCOC(=O)N1CCC2(CC1)C(C#N)=C(N)OC1=C2C(=O)CCC1`, the cell number change was determined as 5.78%. Also, the concentration at half-maximal activity (AC50) under setting [1] was 4.11 µM [rising, single point]. As for `COc1ccc(C(=O)N2CCC(O)(c3ccc(F)cc3)CC2)cc1OC`, the cell number change amounted to 14.4%. Besides, the AC50 under setting [1] is 18.4 µM [rising, single point]. As for `CN(CC(=O)Nc1ccc(F)c(F)c1F)c1ncnc2sccc12`, the AC50 under setting [2] was 0.461 µM [falling, single point]. Consider `COc1ccc(CCNC(=O)c2n[nH]c(=O)c3ccccc23)cc1`, for which the cell number change was -29.7%. Under setting [1], the AC50 is 0.116 µM [falling, full curve, poor fit].

Regarding `C/C(=N\N1C(=O)c2ccccc2NC1c1ccco1)c1ccccc1O` (stereo not given), the cell number change amounted to 8.12%. As for `CC(C)=CC(=O)O[C@H]1[C@@H]2[C@H](C)C(=O)O[C@@H]2C[C@@H](C)[C@@H]2[C@@H](O)CC(=O)[C@]21C`, the cell number change is -12.9%. For the same compound, the AC50 under setting [1] was 3.66 µM [falling, full curve, poor fit]. As for `Cc1sc2ncn(C(C)C(=O)OC3CCCCC3)c(=O)c2c1C` (stereo not given), the cell number change is -41.6%. On to `COc1cc(S(=O)(=O)NCc2ccncc2)ccc1Br`, for which the cell number change is -48%. Further, the AC50 under setting [2] was 16.4 µM [falling, partial curve, poor fit]. Consider `CCN(CC)c1ccc(/C=N/N2CCN(Cc3ccc(C)cc3C)CC2)c(O)c1`, for which the cell number change came to 22.2%. Under setting [2], the AC50 was 6.51 µM [rising, partial curve, poor fit].

In the case of `Cc1ccsc1C(=O)OCC(=O)Nc1nnc(-c2ccccc2)o1`, the cell number change was 3.45%.

With `COc1ccc(C(=O)CN(C(=O)c2ccc(Cl)cc2)N2C(=O)C3CCCCC3C2=O)cc1` (stereo not given), the cell number change was found to be 3.13%. In addition, the AC50 under setting [1] is 6.51 µM [falling, single point]. For `CCn1c(SCc2cccc(OC)c2)nc2ccccc2c1=O`, the cell number change stood at 7.66%. Moreover, the AC50 under setting [1] was 11.6 µM [falling, single point]. Turning to `Cc1ccc(C)n1-c1ccc(C(=O)NCC2CCCO2)cc1` (stereo not given), the cell number change was -31.4%. Also, the half-maximal activity concentration (AC50) under setting [2] is 29.1 µM [falling, single point]. For the same compound, under setting [1], the AC50 was 2.06 µM [rising, single point].

`CN(C)C(=O)N1CCNCC1`: the cell number change was 14.7%. Further, the AC50 under setting [2] is 0.092 µM [rising, full curve, poor fit]. For `Cc1cccc(C(=O)OCC(=O)NC(C)CCc2ccccc2)c1` (stereo not given), the cell number change came out at 14%. Regarding `COCCNC(=O)C1CC(c2ccccc2C(F)(F)F)=NO1` (stereo not given), the cell number change is 24.3%. Under setting [2], the AC50 is 0.0651 µM [rising, full curve, poor fit]. The AC50 under setting [1] is 0.82 µM [rising, single point]. For `O=C(Nc1cccc(F)c1)NC1(C(=O)N2CCC(O)CC2)CCCCC1`, the cell number change came to 4.84%. Also, the AC50 under setting [1] is 29.1 µM [rising, single point]. With `O=C(Nc1cccc(F)c1)c1cccnc1NCCc1ccccc1`, the cell number change is -34.6%. Further, the AC50 under setting [2] is 20.6 µM [falling, single point]. For the same compound, under setting [1], the AC50 is 23.1 µM [falling, single point]. For the compound `O=C(c1cccc(NS(=O)(=O)c2ccc(F)c(F)c2)c1)N1CCN(Cc2ccccc2)CC1`, the cell number change came out at 20.9%. In the case of `COc1ccc(OC)c(NC(=O)c2ccc3c(c2)CCN3S(C)(=O)=O)c1`, the cell number change is -7.61%. Besides, the AC50 under setting [1] is 4.61 µM [rising, full curve]. As for `COc1ccccc1OCC(=O)NCCNC(=O)COc1ccccc1OC`, the cell number change is -1.04%. For the same compound, under setting [1], the AC50 is 8.2 µM [rising, partial curve, poor fit]. Take `C#Cc1cccc(NC(=O)c2ccc3c(c2)C(=O)N(Cc2cccnc2)C3=O)c1`: the cell number change was -27.3%. Regarding `CCOC(=O)c1ccccc1-c1csc(NS(=O)(=O)c2ccc(Cl)cc2)n1`, the cell number change was -17.7%. Also, the AC50 under setting [2] was 1.64 µM [falling, partial curve, poor fit]. In addition, under setting [1], the AC50 was 0.58 µM [falling, partial curve, poor fit]. In the case of `O=C(CSc1nnc(NC(=O)c2ccccc2)s1)NCC1CCCO1` (stereo not given), the cell number change is -32.7%. The AC50 under setting [2] was 32.6 µM [falling, single point]. Under setting [1], the AC50 was 29.1 µM [rising, single point]. As for `CCc1c(C)nc2[nH]nc(NC(=O)C(F)(F)F)n2c1=O`, the cell number change turned out to be 2.39%. `O=C(CC(C(=O)N1CCc2ccccc21)n1ccnc1)NCc1cccnc1` (stereo not given): the cell number change stood at 15.8%. Besides, under setting [1], the concentration at half-maximal activity (AC50) was 3.26 µM [rising, partial curve]. As to `COc1ccc(-n2nc(C(=O)NCc3ccco3)c3c4ccccc4n(C)c3c2=O)cc1`, the cell number change amounted to 24.1%. In addition, the AC50 under setting [2] was 2.31 µM [rising, full curve, poor fit]. Take `O=C(C1CC1)N1CCN(c2ccnc3cc(Cl)ccc23)CC1`: the cell number change was found to be 2.6%. In addition, the AC50 under setting [1] is 0.291 µM [rising, partial curve, poor fit]. As to `COc1ccc(COCC(O)CN2CCC(C(N)=O)CC2)cc1OC` (stereo not given), the cell number change came out at 8.61%. In addition, the AC50 under setting [1] is 0.651 µM [falling, full curve].

As to `COc1ccc([N+](=O)[O-])cc1NC(=O)c1ccccc1SC`, the cell number change amounted to 26.4%. On to `CCOC(=O)c1ccc(NC(=O)COc2cc(=O)n(CC)c3ccccc23)cc1`, for which the cell number change stood at 11%. The AC50 under setting [1] is 0.164 µM [rising, full curve, poor fit]. With `COc1ccc(NC(=O)CSc2ccc3ccccc3c2)cc1S(=O)(=O)N1CCCCC1`, the cell number change is 18.9%. For the same compound, the AC50 under setting [1] is 5.8 µM [rising, full curve]. With `c1ccc2[nH]c(NCCCN3CCOCC3)nc2c1`, the cell number change was -2.12%. In addition, the AC50 under setting [2] is 0.58 µM [falling, partial curve]. Further, under setting [1], the AC50 was 0.326 µM [falling, partial curve]. As for `CC(=O)Nc1nnc(CSCc2ccccc2F)s1`, the cell number change is 2.12%. Also, under setting [1], the AC50 was 0.517 µM [rising, full curve, poor fit]. With `Cc1ccc2nc(N3CCN(C(=O)c4ccco4)CC3)c3nncn3c2c1`, the cell number change is -18.6%. For the same compound, the AC50 under setting [1] was 2.06 µM [falling, partial curve]. Take `COCCN(C(=O)Cc1cccs1)C(C(=O)NCc1ccc(OC)cc1)c1ccc(C)cc1` (stereo not given): the cell number change is -38.6%. Also, the AC50 under setting [2] was 29.1 µM [falling, single point].

Consider `O=C(OCC(=O)N1CCN(c2ccccc2)CC1)c1cc(Br)ccc1Cl`, for which the cell number change was found to be 11.3%. Besides, the AC50 under setting [1] was 0.0461 µM [rising, full curve, poor fit]. Take `CC(CC(=O)Nc1cc(C(F)(F)F)ccc1Cl)c1ccccc1` (stereo not given): the cell number change was -31.4%. Also, the concentration at half-maximal activity (AC50) under setting [2] was 0.651 µM [falling, full curve, poor fit]. In addition, under setting [1], the AC50 is 1.64 µM [falling, partial curve]. For `COc1cc(N2C(=O)CC3(CCCC3)CC2=O)cc(OC)c1OC`, the cell number change was -3.8%. The AC50 under setting [1] was 0.184 µM [falling, full curve, poor fit]. Consider `CC(C)c1ccccc1NC(=S)NCc1ccncc1`, for which the cell number change is -7.43%.

Take `CCN(C(=O)COC(=O)COc1ccc(Cl)c(C)c1)C1CCS(=O)(=O)C1` (stereo not given): the cell number change is -56.9%. In addition, the AC50 under setting [2] was 25.9 µM [falling, single point]. Under setting [1], the AC50 was 20.6 µM [falling, single point]. In the case of `O=C(COc1ccc(F)cc1)N(CC1=CCS(=O)(=O)C1)c1ccccc1`, the cell number change was found to be 13%. The AC50 under setting [1] was 4.61 µM [rising, full curve]. `Cc1ccc(CSc2nnc(-c3cccc(S(=O)(=O)N4CCOCC4)c3)n2C2CCCC2)cc1`: the cell number change stood at 0.746%. For the same compound, the AC50 under setting [1] was 4.61 µM [rising, single point]. `O=C(C1CCN(C2CCN(Cc3ccc4c(c3)CCO4)CC2)CC1)N1CCOCC1`: the cell number change stood at 11.8%. Under setting [1], the AC50 was 29.1 µM [rising, single point].
